{"source": "patent US20130131153A1", "about": "“CULLIN 5 AS A REGULATOR OF HSP90 CLIENTS: A NEW TARGET FOR DRUG DEVELOPMENT” (THE JOHNS HOPKINS UNIVERSITY, priority 2009, published 2013)", "key": {"[1]": {"tested_on": "ErbB2", "test": "In vivo ubiquitination assay of ErbB2 in 293T cells", "assay_type": "cell-based", "conditions": "5 μM MG132 and 3 μM GA for 4 h, compared to control treated cells"}, "[2]": {"tested_on": "ErbB2", "test": "Co-immunoprecipitation of endogenous Cul5 with ErbB2 (Western blot)", "assay_type": "cell-based", "conditions": "293T cells transfected with ErbB2, 2 μM GA or control DMSO and 5 μM MG132"}}, "note": "For at least one compound, name, drawing or mass did not settle the structure.", "data": [{"smiles": "COC1=C2C[C@@H](C)C[C@H](OC)[C@H](O)[C@@H](C)/C=C(\\C)[C@H](OC(N)=O)[C@@H](OC)/C=C\\C=C(/C)C(=O)NC(=CC1=O)C2=O", "note": "[GA, geldanamycin]", "values": [{"measurement": "Polyubiquitination of ErbB2", "setting": "[1]", "result": "induced polyubiquitination of ErbB2"}, {"measurement": "Cul5 interaction with immunoprecipitated ErbB2", "setting": "[2]", "result": "Cul5 interaction was detected only in GA-treated cells"}]}]}
